The text below walks through data of publication doi:10.1101/2021.12.09.471902.

The chains behind the UniProt entries cited, without tags or fusion partners. Where a name states a change or a piece, a line headed by the entry shows the natural chain unless it says otherwise.
UniProt Q8IXI2: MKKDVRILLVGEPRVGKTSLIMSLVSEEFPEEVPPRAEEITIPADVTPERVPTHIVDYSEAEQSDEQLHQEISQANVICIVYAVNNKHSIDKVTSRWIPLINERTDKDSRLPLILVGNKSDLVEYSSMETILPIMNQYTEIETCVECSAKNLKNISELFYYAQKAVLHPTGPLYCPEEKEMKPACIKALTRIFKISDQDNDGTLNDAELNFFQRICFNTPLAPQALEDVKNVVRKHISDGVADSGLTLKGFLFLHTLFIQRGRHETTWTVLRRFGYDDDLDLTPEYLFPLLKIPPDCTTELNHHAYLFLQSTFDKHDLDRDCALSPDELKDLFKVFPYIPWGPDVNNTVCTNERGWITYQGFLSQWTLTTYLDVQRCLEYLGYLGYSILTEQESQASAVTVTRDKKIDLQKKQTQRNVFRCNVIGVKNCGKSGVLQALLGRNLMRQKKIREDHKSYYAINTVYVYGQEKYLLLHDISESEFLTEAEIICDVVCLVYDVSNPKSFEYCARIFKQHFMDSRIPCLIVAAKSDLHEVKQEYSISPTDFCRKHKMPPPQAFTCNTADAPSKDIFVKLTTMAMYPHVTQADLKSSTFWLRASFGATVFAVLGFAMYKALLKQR
UniProt P21279: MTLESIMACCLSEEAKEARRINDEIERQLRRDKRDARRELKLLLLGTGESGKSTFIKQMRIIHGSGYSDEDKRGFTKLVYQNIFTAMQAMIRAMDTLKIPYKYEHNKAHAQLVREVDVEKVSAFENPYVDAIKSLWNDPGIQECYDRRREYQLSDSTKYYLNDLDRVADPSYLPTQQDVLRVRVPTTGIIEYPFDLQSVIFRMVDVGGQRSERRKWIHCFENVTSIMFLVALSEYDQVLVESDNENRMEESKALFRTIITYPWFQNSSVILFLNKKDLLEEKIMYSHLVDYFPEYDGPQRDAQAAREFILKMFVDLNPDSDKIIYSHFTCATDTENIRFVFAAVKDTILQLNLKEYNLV

Assay in all cases: co-IP
In experiment [1] the target is Myc-Miro1 (UniProt Q8IXI2).
A further experiment deals with T1, GFP-Alex3 (UniProt Q8BHS6).
T1 sequence: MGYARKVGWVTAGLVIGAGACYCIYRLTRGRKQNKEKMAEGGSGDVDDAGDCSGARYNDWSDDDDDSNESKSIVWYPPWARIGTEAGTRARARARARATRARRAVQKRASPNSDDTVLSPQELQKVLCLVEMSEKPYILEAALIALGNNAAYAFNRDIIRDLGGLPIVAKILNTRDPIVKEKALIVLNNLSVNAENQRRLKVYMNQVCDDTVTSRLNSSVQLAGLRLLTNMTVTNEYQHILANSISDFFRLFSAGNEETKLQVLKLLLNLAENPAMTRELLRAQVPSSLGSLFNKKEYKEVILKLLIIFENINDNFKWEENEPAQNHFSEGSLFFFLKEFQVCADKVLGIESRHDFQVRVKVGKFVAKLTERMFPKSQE

For another experiment, the target named is T2, HA-Trak1 (UniProt Q9UPV9).
T2 sequence: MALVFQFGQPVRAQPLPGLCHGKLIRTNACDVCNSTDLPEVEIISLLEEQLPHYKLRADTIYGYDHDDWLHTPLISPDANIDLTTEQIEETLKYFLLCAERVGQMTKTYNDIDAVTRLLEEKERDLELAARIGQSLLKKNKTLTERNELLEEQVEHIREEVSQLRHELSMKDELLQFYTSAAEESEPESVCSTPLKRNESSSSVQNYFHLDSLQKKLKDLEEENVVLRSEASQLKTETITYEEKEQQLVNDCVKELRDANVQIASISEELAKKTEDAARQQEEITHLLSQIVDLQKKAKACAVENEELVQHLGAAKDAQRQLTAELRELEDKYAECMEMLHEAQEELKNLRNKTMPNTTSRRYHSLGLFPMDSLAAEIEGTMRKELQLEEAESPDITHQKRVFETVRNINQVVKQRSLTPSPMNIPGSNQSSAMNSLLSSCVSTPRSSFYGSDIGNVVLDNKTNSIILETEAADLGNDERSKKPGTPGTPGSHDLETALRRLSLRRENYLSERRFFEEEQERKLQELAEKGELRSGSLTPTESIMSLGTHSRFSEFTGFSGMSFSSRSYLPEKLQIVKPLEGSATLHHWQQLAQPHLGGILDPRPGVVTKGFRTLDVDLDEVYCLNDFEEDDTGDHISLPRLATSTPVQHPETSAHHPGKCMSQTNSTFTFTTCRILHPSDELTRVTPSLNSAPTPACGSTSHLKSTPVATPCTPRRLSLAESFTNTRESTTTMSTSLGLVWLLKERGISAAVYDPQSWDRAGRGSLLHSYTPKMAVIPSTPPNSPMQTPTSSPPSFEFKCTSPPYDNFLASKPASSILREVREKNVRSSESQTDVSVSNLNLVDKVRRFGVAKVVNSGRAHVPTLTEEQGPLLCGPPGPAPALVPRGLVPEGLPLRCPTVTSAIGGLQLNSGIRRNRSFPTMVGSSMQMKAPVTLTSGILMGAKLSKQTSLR

For a further experiment, the target named is T3, HA-Trak2 (UniProt O60296).
T3 sequence: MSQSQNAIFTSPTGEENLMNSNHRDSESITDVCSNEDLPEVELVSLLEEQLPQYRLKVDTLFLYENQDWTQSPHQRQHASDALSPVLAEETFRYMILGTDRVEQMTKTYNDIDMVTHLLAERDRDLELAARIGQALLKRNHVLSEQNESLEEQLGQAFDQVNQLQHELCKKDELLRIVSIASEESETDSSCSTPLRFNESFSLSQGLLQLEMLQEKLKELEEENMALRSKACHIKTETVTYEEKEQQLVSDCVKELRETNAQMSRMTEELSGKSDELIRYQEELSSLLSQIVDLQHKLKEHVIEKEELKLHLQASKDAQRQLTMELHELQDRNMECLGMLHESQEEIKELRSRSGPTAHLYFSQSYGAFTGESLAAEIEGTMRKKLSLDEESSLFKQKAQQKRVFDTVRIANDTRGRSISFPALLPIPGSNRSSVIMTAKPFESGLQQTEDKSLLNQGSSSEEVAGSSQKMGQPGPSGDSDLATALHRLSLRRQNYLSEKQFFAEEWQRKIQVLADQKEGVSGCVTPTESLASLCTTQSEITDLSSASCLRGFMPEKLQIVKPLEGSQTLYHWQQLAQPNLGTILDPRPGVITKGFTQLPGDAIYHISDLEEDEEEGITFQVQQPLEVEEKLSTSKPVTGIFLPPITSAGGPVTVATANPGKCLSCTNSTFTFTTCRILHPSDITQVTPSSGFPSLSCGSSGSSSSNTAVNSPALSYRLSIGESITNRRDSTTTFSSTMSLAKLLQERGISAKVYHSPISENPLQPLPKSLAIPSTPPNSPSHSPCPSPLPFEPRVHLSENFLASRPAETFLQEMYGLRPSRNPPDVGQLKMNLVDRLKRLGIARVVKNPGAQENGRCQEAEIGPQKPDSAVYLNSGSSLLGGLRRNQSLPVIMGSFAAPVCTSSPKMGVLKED

In experiment [2] the target is Myc-Miro1 (UniProt Q8IXI2). The source holds these as a separate data set.
The next experiment addresses T4, myc-Alex3 (UniProt Q8BHS6).
T4 sequence: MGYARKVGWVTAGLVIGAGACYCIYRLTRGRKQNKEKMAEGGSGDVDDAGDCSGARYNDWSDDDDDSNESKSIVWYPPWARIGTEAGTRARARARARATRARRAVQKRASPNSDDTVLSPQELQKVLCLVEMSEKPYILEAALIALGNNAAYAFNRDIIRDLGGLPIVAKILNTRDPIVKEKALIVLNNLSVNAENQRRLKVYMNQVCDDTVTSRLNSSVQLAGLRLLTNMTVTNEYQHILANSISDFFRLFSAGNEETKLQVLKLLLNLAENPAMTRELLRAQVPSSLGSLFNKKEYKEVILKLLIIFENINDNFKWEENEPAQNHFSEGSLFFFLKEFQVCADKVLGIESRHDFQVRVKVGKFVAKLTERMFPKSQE

Read-outs that look alike come from different tables or passages of the source. Results are given in words; binding and its absence hold for the method and conditions named. In cells and extracts the contact can be indirect. Some entries that bind do so weakly or less than the wild type. For part of these data: Sequences can lack the tags named with a protein.

GαqR183C (from UniProt P21279 1-359): the binding result with Myc-Miro1 [1], in the experiment with GFP-Alex3, in the experiment with HA-Trak1, in the experiment with HA-Trak2, with Myc-Miro1 [2] and with myc-Alex3 was “binds” each time.

B1: Alex3 (endogenous, human cells) (protein, UniProt Q9UH62 1-379)
chain: MGYARKVGWVTAGLVIGAGACYCIYRLTRGRKQNKEKMAEGGSGDVDDAGDCSGARYNDWSDDDDDSNESKSIVWYPPWARIGTEAGTRARARARARATRARRAVQKRASPNSDDTVLSPQELQKVLCLVEMSEKPYILEAALIALGNNAAYAFNRDIIRDLGGLPIVAKILNTRDPIVKEKALIVLNNLSVNAENQRRLKVYMNQVCDDTITSRLNSSVQLAGLRLLTNMTVTNEYQHMLANSISDFFRLFSAGNEETKLQVLKLLLNLAENPAMTRELLRAQVPSSLGSLFNKKENKEVILKLLVIFENINDNFKWEENEPTQNQFGEGSLFFFLKEFQVCADKVLGIESHHDFLVKVKVGKFMAKLAEHMFPKSQE
Turning to B1, the results for the binding entry with HA-Trak1, with HA-Trak2 and with Myc-Miro1 [2] were “no binding”, “binds” and “binds”, respectively.
